Measurements reported in PubChem BioAssay AID504795 (Drosophila RNAi Screening Center, 2011)
Only reagents picked out of a larger screen are listed. 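Every listed dsRNA shows some phenotype; how reagents were selected for listing is not stated.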 Names joined by + are all predicted targets of the reagent.

Aim: 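Fly genes whose loss alters neurite growth or neural cell form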 (primary screen)
Cell system: primary Drosophila neurons and glia
Reagent: long dsRNA against Drosophila genes, 250 ng dsRNA per well
Duration: one week
Measured: 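GFP-labelled neurons and glia imaged live by automated microscope one week after 250 ng dsRNA per well; morphology scored by eye as descriptive phenotype terms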

| Target gene | amplicon | phenotype seen, replicate 1 | phenotype seen, replicate 2 |
| --- | --- | --- | --- |
| CG34315 + Orc3 | DRSC07642 | abnormal cell clusters | – |
| CG34242 | DRSC09185 | weaker green signal | – |
| CG14646 | DRSC12232 | too many neurite branches | – |
| stet | DRSC08283 | too many neurite branches | – |
| ms(2)35Ci | DRSC01460 | sheet-like cell extensions | – |
| CG34266 | DRSC08323 | axon bundles split apart | – |
| Ugt37B1 | DRSC03225 | reduced axon outgrowth | – |
| Vinc | DRSC18728 | cell fragments present | – |
| CG5131 | DRSC02817 | abnormal cell clusters | – |
| CG4641 (retired record) | DRSC10439 | axon bundles split apart | – |
| Task7 | DRSC16477 | axon bundles split apart | – |
| htt | DRSC16970 | abnormal cell clusters | – |
| Ir52d | DRSC06264 | too many neurite branches | – |
| CG11334 | DRSC14302 | too many neurite branches | – |
| atilla | DRSC02971 | too many neurite branches | – |
| Rrp6 | DRSC16223 | axon bundles split apart | – |
| Rbp | DRSC15724 | beaded; swollen axons | – |
| Cap-D2 | DRSC15401 | cell fragments present | – |
| Sqor | DRSC08453 | axon bundles split apart | – |
| CtsL3 | DRSC12171 | axon bundles split apart | – |
| SP | DRSC09664 | abnormal cell clusters | – |
| CG42697 | DRSC05740 | too many neurite branches | – |
| Cka | DRSC22858 | axon bundles split apart | – |
| Jheh2 | DRSC06530 | too many neurite branches | – |
| CG8578 | DRSC20114 | cell fragments present | – |
| CG17145 | DRSC10247 | axon bundles split apart | – |
| CG14397 | DRSC02381 | cell fragments present | – |
| Ran | DRSC20364 | sheet-like cell extensions | – |
| Rnmt | DRSC03558 | axon bundles split apart | – |
| 128up | DRSC05027 | axon bundles split apart | – |
| CG31781 (retired record) | DRSC02432 | axon bundles split apart | – |
| RhoU | DRSC17804 | axon bundles split apart | – |
| nab | DRSC08456 | too many neurite branches | – |
| RPA1 | DRSC16830 | too many neurite branches | – |
| CG8323 | DRSC07149 | axon bundles split apart | – |
| CG31917 + Tfb5 | DRSC02362 | axon bundles split apart | – |
| CG8170 | DRSC07087 | reduced axon outgrowth | – |
| CG14153 | DRSC22595 | too many neurite branches | – |
| CG10205 | DRSC05979 | fewer cells | – |
| tfc | DRSC21704 | abnormal cell clusters | – |
| CG34433 | DRSC15077 | sheet-like cell extensions | – |
| CG14854 | DRSC14978 | too many neurite branches | – |
| Prx1 | DRSC10741 | too many neurite branches | – |
| CG15005 | DRSC08459 | axon bundles split apart | – |
| CG4629 | DRSC00659 | reduced axon outgrowth | – |
| Ten-a | DRSC19496 | axon bundles split apart | – |
| Ten-a | DRSC19700 | too many neurite branches | – |
| CG11247 | DRSC11643 | reduced axon outgrowth | – |
| RpL32 | DRSC16835 | too many neurite branches | – |
| fz | DRSC11348 | axon bundles split apart | axon bundles split apart |
| CG32547 | DRSC19626 | axon bundles split apart | – |
| Pde6 | DRSC16403 | abnormal cell clusters | – |
| His4:CG33885 + His4:CG33883 + His4:CG33889 + 20 more | DRSC21268 | axon bundles split apart | – |
| Gmd | DRSC03119 | too many neurite branches | – |
| CG13063 | DRSC09946 | axon bundles split apart | axon bundles split apart |
| Exo84 | DRSC15965 | axon bundles split apart | – |
| CG5516 | DRSC15826 | too many neurite branches | – |
| Letm1 | DRSC04476 | axon bundles split apart | – |
| CG46301 | DRSC01916 | axon bundles split apart | – |
| CG33017 | DRSC06574 | too many neurite branches | – |
| RpL35 | DRSC18347 | weaker green signal | – |
| jus | DRSC14862 | sheet-like cell extensions | – |
| CG11317 | DRSC14299 | axon bundles split apart | – |
| CCDC151 | DRSC10131 | abnormal cell clusters | – |
| CG3402 | DRSC08567 | sheet-like cell extensions | – |

Continued (3 carried over from the part before).
| Target gene | amplicon | phenotype seen, replicate 1 | phenotype seen, replicate 2 |
| --- | --- | --- | --- |
| CG11317 | DRSC14299 | axon bundles split apart | – |
| CCDC151 | DRSC10131 | abnormal cell clusters | – |
| CG3402 | DRSC08567 | sheet-like cell extensions | – |
| beta3GalTII | DRSC07253 | sheet-like cell extensions | – |
| CAH3 | DRSC17776 | axon bundles split apart | – |
| PGRP-LC | DRSC10416 | axon bundles split apart | – |
| Impbeta11 | DRSC07525 | fewer cells | – |
| dap | DRSC07601 | sheet-like cell extensions | – |
| CG4537 | DRSC02756 | axon bundles split apart | – |
| CG7907 | DRSC16339 | reduced axon outgrowth | – |
| Rrp46 | DRSC15537 | sheet-like cell extensions | – |
| dgt3 | DRSC04349 | axon bundles split apart | – |
| RpS7 | DRSC15394 | cell fragments present | – |
| CG7443 | DRSC16244 | too many neurite branches | – |
| CG18234 | DRSC10309 | axon bundles split apart | – |
| Or47b | DRSC07492 | abnormal cell clusters | – |
| Mi-2 | DRSC11222 | cell fragments present | – |
| loaf | DRSC09130 | too many neurite branches | – |
| CG14417 | DRSC18638 | abnormal cell clusters | – |
| CG12926 | DRSC06239 | sheet-like cell extensions | – |
| fne | DRSC20332 | sheet-like cell extensions | – |
| CG31482 | DRSC12582 | reduced axon outgrowth | – |
| CG12935 + Nop10 | DRSC07025 | too many neurite branches | – |
| Past1 | DRSC16784 | axon bundles split apart | – |
| CG30467 | DRSC07097 | reduced axon outgrowth | – |
| CG12971 | DRSC11681 | too many neurite branches | – |
| Eip74EF | DRSC11160 | axon bundles split apart | – |
| CG11155 | DRSC17205 | too many neurite branches | – |
| SmydA-6 | DRSC07341 | too many neurite branches | – |
| CG5447 | DRSC15801 | abnormal cell clusters | – |
| Mfe2 | DRSC19869 | too many neurite branches | – |
| Alg10 | DRSC10892 | axon bundles split apart | – |
| CG14915 | DRSC02399 | too many neurite branches | – |
| smid | DRSC11398 | too many neurite branches | – |
| CG30062 | DRSC21737 | sheet-like cell extensions | – |
| Cks85A | DRSC16562 | axon bundles split apart | – |
| CG10384 | DRSC03933 | too many neurite branches | – |
| nxf4 | DRSC12548 | axon bundles split apart | – |
| CG4116 | DRSC18348 | abnormal cell clusters | – |
| CG31612 | DRSC03697 | beaded; swollen axons | – |
| Irp-1B | DRSC16720 | too many neurite branches | – |
| RpS24 | DRSC04414 | too many neurite branches | – |
| Pomp | DRSC03201 | abnormal cell clusters | – |
| asp | DRSC16903 | cell fragments present | – |
| CR31958 | DRSC00282 | axon bundles split apart | – |
| BNIP3 | DRSC11761 | abnormal cell clusters | – |
| Polr1H | DRSC14594 | sheet-like cell extensions | – |
